According to PubChem BioAssay AID662 (National Center for Advancing Translational Sciences (NCATS), 2007):
This is one part of the list. Shown are side measurements of this screen, not its main read-out; they come without a call. Most of these compounds were active or inconclusive in the main read-out, so they are no random draw. Words in brackets tell the shape of the fitted curve; partial curves, single points and poor fits give uncertain potencies.

Experiment: Cell signaling CRE-BLA (Fsk stim)
Settings: CHO CRE-bla reporter (cAMP response element driving beta-lactamase), forskolin EC10, beta-lactamase ratio; measured here: 460 nm blue channel
Outline: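 AC50 values, positive or negative, reflect shifts in EC10 NKH 477-induced CRE-bla reporter activity in CHO cells. Incubation lasted 3 h at 37 °C before CCF4 substrate (2 h, room temperature) and ratiometric 460/530 nm reading.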
In the case of `c1cncc(CNc2nc(-c3ccoc3)nc3ccccc23)c1`, the AC50 is reported as 3.98 µM [rising, full curve].
With `CS(=O)(=O)Nc1cccc(-c2nc(Nc3ccncc3)c3ccccc3n2)c1` the AC50 was 5.01 µM [rising, partial curve].
With `Cc1sc2nc3c4ccccc4c(NCc4ccco4)nn3c(=O)c2c1C` the AC50 was 25.1 µM [falling, single point].
For `Cn1cc(-c2nc3cnc(N4CCNCC4)nc3n(-c3ccccc3)c2=O)c2ccccc21`, the AC50 was 10 µM [rising, partial curve].
In the case of `COCCCNc1nc2ccccc2nc1NS(=O)(=O)c1cccs1`, the AC50 is reported as 15.8 µM [rising, single point].
In the case of `CN(C)CCCN1c2ccccc2Sc2ccccc21`, the AC50 is reported as 12.6 µM [falling, single point].
With `CCCCN(CCCNC(=O)C1CCN(S(=O)(=O)CC)CC1)c1ccccc1` the AC50 was 25.1 µM [falling, single point].
With `Cn1c(=O)c2c(nc(SCc3cccnc3)n2Cc2ccccc2)n(C)c1=O` the AC50 was 10 µM [rising, partial curve].
With `Cc1ccc(C(=O)N2CCCC(c3nc4c(nnn4Cc4ccccc4)c(=O)[nH]3)C2)cc1` (configuration not stated) the AC50 was 12.6 µM [rising, partial curve].
In the case of `CCOC(=O)c1c(NC(=O)C(F)(OC)C(F)(F)F)sc2c1CCN(C)C2` (configuration not stated), the AC50 is reported as 10 µM [rising, partial curve].
For `O=C(c1ccco1)N1CCN(C(=O)c2snc3ccc(Cl)cc23)CC1`, the AC50 was 5.01 µM [falling, single point].
For `Cc1cccc(-n2ncc3c(NCc4cccs4)ncnc32)c1`, the AC50 was 25.1 µM [rising, single point].
For `CCOC(=O)C1=C(C)NC(=O)NC1c1ccc(OC(=O)c2ccco2)c(OC)c1` (configuration not stated), the AC50 was 1 µM [rising, partial curve, poor fit].
For `CCOc1cccc(Oc2ccc(C(F)(F)F)cn2)c1`, the AC50 was 25.1 µM [rising, single point].
In the case of `COc1ccc(-n2c(=O)c(C)nc3cnc(Oc4ccccc4)nc32)cc1`, the AC50 is reported as 2.51 µM [rising, full curve].
For `COC(=O)c1ccc2ccn(CC(=O)NC(C)C)c2c1`, the AC50 was 0.00316 µM [falling, full curve, poor fit].
With `Cc1cc(C(=O)Nc2c(C)nn(Cc3c(Cl)cccc3Cl)c2C)no1` the AC50 was 0.0251 µM [falling, partial curve, poor fit].
With `COc1ccc(CCNc2ncnc3c2oc2ccccc23)cc1OC` the AC50 was 12.6 µM [falling, single point].
For `Cc1nc2cnc(N3CCNCC3)nc2n(C2CC2)c1=O`, the AC50 was 12.6 µM [rising, partial curve].
For `Cc1ccc2cc(CN(Cc3ccco3)C(=O)c3cccs3)c(=O)[nH]c2c1`, the AC50 was 6.31 µM [falling, partial curve].
For `COc1ccc(-c2nnn(CC(=O)c3c[nH]c4ccccc34)n2)cc1OC`, the AC50 was 12.6 µM [rising, partial curve].
With `COc1ccc(N2CCN(Cc3nc4c(c(=O)n(C)c(=O)n4C)n3Cc3cccc(C)c3)CC2)cc1` the AC50 was 12.6 µM [rising, partial curve].
In the case of `CCCn1c(-c2cccs2)nc2ccccc21`, the AC50 is reported as 12.6 µM [rising, partial curve].
For `CN1CCN(c2ncc3nc(-c4ccc(Cl)cc4)c(=O)n(-c4ccccc4)c3n2)CC1`, the AC50 was 1.58 µM [rising, full curve].
For `CCN1C2=C(C(=O)CCC2)C(c2ccc(O)c(Br)c2)C2=C1CCCC2=O`, the AC50 was 10 µM [rising, partial curve].
In the case of `COc1ccc(-c2n[nH]c(C)c2-c2ccc(OC)c(OC)c2)c(O)c1`, the AC50 is reported as 1.26 µM [rising, full curve].
For `COc1ccc(N(CC(=O)Nc2ccc3c(c2)OCO3)S(=O)(=O)c2ccccc2)c(OC)c1`, the AC50 was 10 µM [falling, partial curve].
In the case of `CC(C)(C)C(=O)Cn1c(=N)n(Cc2ccccc2)c2ccccc21`, the AC50 is reported as 25.1 µM [falling, partial curve].
With `CCn1cc(C(=O)Nc2cc3c(cc2NC(C)=O)OCCO3)c(=O)c2ccc(C)nc21` the AC50 was 2 µM [rising, single point].
In the case of `CCCCCOC(=O)Cn1c(SCC(=O)Nc2ccccc2)nc2c1c(=O)[nH]c(=O)n2C`, the AC50 is reported as 12.6 µM [rising, single point].
For `Cc1ccc(NC(=O)CSc2nnc(-c3ccccn3)n2C)cc1`, the AC50 was 2.51 µM [falling, partial curve].
In the case of `O=C(NCCCN1CCN(c2ccccc2F)CC1)C1CCN(S(=O)(=O)N2CCOCC2)CC1`, the AC50 is reported as 25.1 µM [falling, single point].
For `CCN(C(=O)c1cn(C)c(=O)c2cc(OC)c(OC)cc12)c1ccccc1C`, the AC50 was 5.01 µM [rising, partial curve].
With `CCOC(=O)c1ccc2c(c1)nc(SCc1cn3ccsc3n1)n2CC` the AC50 was 2.51 µM [rising, partial curve].
For `COc1ccc(OC)c(NC(=O)CSc2nc3cccnc3n2C)c1`, the AC50 was 10 µM [rising, single point].
For `CSC1=NCCN1C(=O)c1ccc(Br)o1`, the AC50 was 12.6 µM [rising, single point].
In the case of `CC(=O)Nc1cccc(Oc2cc(C#N)c(C#N)cc2N2CCOCC2)c1`, the AC50 is reported as 5.01 µM [rising, full curve].
With `CCc1ccc2c(CN(CC)Cc3nc4ccccc4c(=O)[nH]3)cc(=O)oc2c1` the AC50 was 15.8 µM [rising, single point].
With `COc1nnc(-c2ccc(C)c(S(=O)(=O)NCCO)c2)c2ccccc12` the AC50 was 10 µM [rising, partial curve].
In the case of `COc1cc(OC)cc(N(C(=O)c2ccco2)C(C(=O)NC2CCCC2)c2ccc(N(C)C)cc2)c1` (configuration not stated), the AC50 is reported as 0.0794 µM [falling, single point].
For `COCCn1c(=O)c(-c2cccc(C#N)c2)nc2cnc(Oc3ccccc3)nc21`, the AC50 was 25.1 µM [rising, single point].
With `Cn1c(=O)c2c(SCc3ccccn3)nc(C3CC3)nc2n(C)c1=O` the AC50 was 2.51 µM [rising, full curve].
